This is an account of results in article PMC7553267.

Protein sequences, listed by entry. Tags and fused reporters are not part of them. Lines headed by an entry give the natural chain unless they say otherwise; changes in a name come on top.
UniProt P20449: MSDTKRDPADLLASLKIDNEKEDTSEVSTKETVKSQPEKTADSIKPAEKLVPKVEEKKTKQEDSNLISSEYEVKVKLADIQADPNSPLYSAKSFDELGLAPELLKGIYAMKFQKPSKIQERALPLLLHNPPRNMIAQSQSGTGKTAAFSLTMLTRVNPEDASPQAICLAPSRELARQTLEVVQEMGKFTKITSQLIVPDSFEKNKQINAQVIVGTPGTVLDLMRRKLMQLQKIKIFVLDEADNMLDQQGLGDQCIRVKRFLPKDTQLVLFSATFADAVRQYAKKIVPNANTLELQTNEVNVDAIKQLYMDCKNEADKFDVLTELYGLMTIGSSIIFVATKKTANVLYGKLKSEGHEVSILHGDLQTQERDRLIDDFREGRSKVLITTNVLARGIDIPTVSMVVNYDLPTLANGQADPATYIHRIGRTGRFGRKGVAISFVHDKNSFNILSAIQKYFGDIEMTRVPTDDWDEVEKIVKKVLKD
UniProt P04147: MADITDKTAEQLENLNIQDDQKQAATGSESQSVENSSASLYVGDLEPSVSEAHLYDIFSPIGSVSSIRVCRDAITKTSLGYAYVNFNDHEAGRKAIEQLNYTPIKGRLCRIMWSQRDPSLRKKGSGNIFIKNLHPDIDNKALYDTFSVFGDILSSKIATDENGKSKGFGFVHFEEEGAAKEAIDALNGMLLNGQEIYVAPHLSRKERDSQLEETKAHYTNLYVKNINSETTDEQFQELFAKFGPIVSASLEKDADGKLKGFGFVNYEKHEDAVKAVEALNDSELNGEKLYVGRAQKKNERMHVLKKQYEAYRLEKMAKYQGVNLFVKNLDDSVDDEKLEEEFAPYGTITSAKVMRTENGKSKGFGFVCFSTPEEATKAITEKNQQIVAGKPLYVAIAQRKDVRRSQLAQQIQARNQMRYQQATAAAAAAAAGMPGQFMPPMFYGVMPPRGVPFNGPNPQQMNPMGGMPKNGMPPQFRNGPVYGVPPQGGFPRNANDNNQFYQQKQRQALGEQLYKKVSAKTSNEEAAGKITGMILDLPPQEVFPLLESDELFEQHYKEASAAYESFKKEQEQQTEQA
UniProt P34160: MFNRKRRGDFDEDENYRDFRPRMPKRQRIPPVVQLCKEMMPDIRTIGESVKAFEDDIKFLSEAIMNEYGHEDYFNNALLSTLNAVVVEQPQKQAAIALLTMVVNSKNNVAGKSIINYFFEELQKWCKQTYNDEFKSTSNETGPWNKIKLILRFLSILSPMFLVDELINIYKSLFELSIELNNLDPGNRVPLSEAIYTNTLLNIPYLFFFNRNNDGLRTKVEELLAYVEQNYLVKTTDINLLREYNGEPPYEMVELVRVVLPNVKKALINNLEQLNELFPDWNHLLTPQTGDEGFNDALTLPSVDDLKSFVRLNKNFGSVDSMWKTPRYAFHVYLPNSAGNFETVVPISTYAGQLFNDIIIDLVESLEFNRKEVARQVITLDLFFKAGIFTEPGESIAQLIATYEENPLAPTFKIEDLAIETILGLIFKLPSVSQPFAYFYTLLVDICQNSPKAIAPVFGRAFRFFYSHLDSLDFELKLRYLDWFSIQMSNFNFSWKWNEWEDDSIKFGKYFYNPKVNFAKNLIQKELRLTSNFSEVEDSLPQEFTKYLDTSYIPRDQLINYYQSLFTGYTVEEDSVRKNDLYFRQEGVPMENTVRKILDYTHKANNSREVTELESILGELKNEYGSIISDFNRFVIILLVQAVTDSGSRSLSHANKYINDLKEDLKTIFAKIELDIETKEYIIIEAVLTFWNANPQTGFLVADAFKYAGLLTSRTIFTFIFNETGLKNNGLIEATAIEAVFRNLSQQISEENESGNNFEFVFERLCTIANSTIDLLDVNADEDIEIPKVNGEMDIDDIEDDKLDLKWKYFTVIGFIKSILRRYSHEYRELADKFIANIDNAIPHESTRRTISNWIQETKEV

No constants are given. Whether binding was seen depends on the method and setting. Binding seen in cells or lysates may run through a third protein. For some assays here: Binding calls can cover weak binding; strength is not graded here.

Test [1] deals with GFP-Dbp5 (S. cerevisiae) (UniProt P20449). The test is described as follows: co-IP; GFP-tagged Dbp5 immunoprecipitated with polyclonal rabbit anti-GFP and Protein A sepharose from yeast lysate treated with water; 25 mM HEPES pH 7.4, 150 mM KCl, 2 mM MgCl2, 0.1% NP-40; eluates immunoblotted. In general terms: A western blot detects proteins with antibodies after separation by electrophoresis.

Test [2] addresses GFP-dbp5^R369G (S. cerevisiae) (UniProt P20449). The description is as above.
The target in test [3] is Dbp5-VC (S. cerevisiae) (UniProt P20449). Nature of the test: split reporter; split Venus (VN and VC at the C-termini), heterozygous diploid yeast, mid-log phase at 23°C, wide-field live-cell fluorescence; reciprocal tagging confirmed the observed association; Dbp5-VC Nab2-VN signal not reduced in many cells after 30 min thiolutin.
The target of test [4] is GFP-Dbp5 (S. cerevisiae) (UniProt P20449). Nature of the test: condition: only lysate treated with 0.5ug/uL RNase A; co-IP; as the co-IP without RNase, but lysate treated with 0.5ug/uL RNase A for 10 min before immunoprecipitation with anti-GFP.
Test [5] has as its target GFP-dbp5^R369G (S. cerevisiae) (UniProt P20449). The description is as above.
Test [6] has as its target Dbp5-VC (S. cerevisiae) (UniProt P20449). The test is described as follows: condition: only after a shift to 42°C for 10 minutes (heat shock); split reporter; split Venus, heterozygous diploid yeast grown at 23°C and shifted to 42°C for 10 min (heat shock), wide-field live-cell fluorescence.

On to Pab1 (from UniProt P04147 1-577), for which the binding result in test [1] and in test [2] was “no binding” each time.
Cbp80 (from UniProt P34160 1-861): in test [2], the binding entry is listed as “no binding”.
For the molecule Pab1-VN (from UniProt P04147 1-577), in test [3], the binding entry is “no binding”.

B1: Nab2 (protein, UniProt P32505 1-525)
chain: MSQEQYTENLKVIVAEKLAGIPNFNEDIKYVAEYIVLLIVNGGTVESVVDELASLFDSVSRDTLANVVQTAFFALEALQQGESAENIVSKIRMMNAQSLGQSDIAQQQQQQQQQQQPDIAQQQPQQQPQQQPQQQPQQQPQQQPQQQPQQQPQQQPQLQPLQPQLGTQNAMQTDAPATPSPISAFSGVVNAAAPPQFAPVDNSQRFTQRGGGAVGKNRRGGRGGNRGGRNNNSTRFNPLAKALGMAGESNMNFTPTKKEGRCRLFPHCPLGRSCPHAHPTKVCNEYPNCPKPPGTCEFLHPNEDEELMKEMERTREEFQKRKADLLAAKRKPVQTGIVLCKFGALCSNPSCPFGHPTPANEDAKVIDLMWCDKNLTCDNPECRKAHSSLSKIKEVKPISQKKAAPPPVEKSLEQCKFGTHCTNKRCKYRHARSHIMCREGANCTRIDCLFGHPINEDCRFGVNCKNIYCLFRHPPGRVLPEKKGAAPNSNVPTNERPFALPENAIIENAPPQTSFTHQEQDTEMN
B1: the binding entry in test [1] is given as “binds”; in test [2], “binds”; in test [4], “no binding”; in test [5] it was “no binding”.

B2: Nab2-VN (protein, UniProt P32505 1-525)
chain: MSQEQYTENLKVIVAEKLAGIPNFNEDIKYVAEYIVLLIVNGGTVESVVDELASLFDSVSRDTLANVVQTAFFALEALQQGESAENIVSKIRMMNAQSLGQSDIAQQQQQQQQQQQPDIAQQQPQQQPQQQPQQQPQQQPQQQPQQQPQQQPQQQPQLQPLQPQLGTQNAMQTDAPATPSPISAFSGVVNAAAPPQFAPVDNSQRFTQRGGGAVGKNRRGGRGGNRGGRNNNSTRFNPLAKALGMAGESNMNFTPTKKEGRCRLFPHCPLGRSCPHAHPTKVCNEYPNCPKPPGTCEFLHPNEDEELMKEMERTREEFQKRKADLLAAKRKPVQTGIVLCKFGALCSNPSCPFGHPTPANEDAKVIDLMWCDKNLTCDNPECRKAHSSLSKIKEVKPISQKKAAPPPVEKSLEQCKFGTHCTNKRCKYRHARSHIMCREGANCTRIDCLFGHPINEDCRFGVNCKNIYCLFRHPPGRVLPEKKGAAPNSNVPTNERPFALPENAIIENAPPQTSFTHQEQDTEMN
Take B2: the binding result was “binds” in test [3] and “no binding” in test [6].

B3: Mex67 (protein, UniProt Q99257 1-599)
chain: MSGFHNVGNINMMAQQQMQQNRIKISVRNWQNATMNDLINFISRNARVAVYDAHVEGPLVIGYVNSKAEAESLMKWNGVRFAGSNLKFELLDNNGASAGTSDTISFLRGVLLKRYDPQTKLLNLGALHSDPELIQKGVFSSISTQSKMFPAMMKLASTEKSLIVESVNLADNQLKDISAISTLAQTFPNLKNLCLANNQIFRFRSLEVWKNKFKDLRELLMTNNPITTDKLYRTEMLRLFPKLVVLDNVIVRDEQKLQTVYSLPMKIQQFFFENDALGQSSTDFATNFLNLWDNNREQLLNLYSPQSQFSVSVDSTIPPSTVTDSDQTPAFGYYMSSSRNISKVSSEKSIQQRLSIGQESINSIFKTLPKTKHHLQEQPNEYSMETISYPQINGFVITLHGFFEETGKPELESNKKTGKNNYQKNRRYNHGYNSTSNNKLSKKSFDRTWVIVPMNNSVIIASDLLTVRAYSTGAWKTASIAIAQPPQQQASVLPQVASMNPNITTPPQPQPSVVPGGMSIPGAPQGAMVMAPTLQLPPDVQSRLNPVQLELLNKLHLETKLNAEYTFMLAEQSNWNYEVAIKGFQSSMNGIPREAFVQF
Regarding B3, the binding result is reported as “binds” in test [1], “binds” in test [2], “no binding” in test [4] and “no binding” in test [5].
